Experimental data as given in patent US20180371107A1 (published 2018).
These are yes or no findings as the source states them, for the method shown. A result given as binding can be weak or reduced; the word gives no strength.

The chains behind the UniProt entries cited, without tags or fusion partners. Where a name states a change or a piece, a line headed by the entry shows the natural chain unless it says otherwise.
UniProt Q14B24: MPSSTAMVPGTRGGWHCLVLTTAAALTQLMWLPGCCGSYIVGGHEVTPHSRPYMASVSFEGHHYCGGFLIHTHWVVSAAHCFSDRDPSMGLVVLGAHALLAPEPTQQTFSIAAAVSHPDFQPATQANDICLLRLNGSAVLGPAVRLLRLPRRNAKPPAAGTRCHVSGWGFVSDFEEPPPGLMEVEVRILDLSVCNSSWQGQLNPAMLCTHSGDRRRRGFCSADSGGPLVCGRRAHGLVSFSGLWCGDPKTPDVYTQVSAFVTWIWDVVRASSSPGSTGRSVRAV

How the values were obtained:
[1] = biological target: mouse active NSP4 (mA-NSP4) (mouse) (UniProt Q14B24); assay: biolayer interferometry
[2] = biological target: mouse active NSP4 (mA-NSP4) (mouse) (UniProt Q14B24); assay: biolayer interferometry, human IgG1
[3] = biological target: mouse active NSP4 (mA-NSP4) (mouse) (UniProt Q14B24); assay: biolayer interferometry, IgG1 on anti-human Fc sensors

Measured: binding

B1: anti-NSP4 antibody 5-3 (antibody, human IgG1, V domains shown)
VH: EVQLVESGGGLVQPGGSLRLSCAASGFTFSGNDISWVRQAPGKGLEWVAGISPYGGSTYYADSVKGRFTISADTSKNTAYLQMNSLRAEDTAVYYCARRVSFYSRHAGMDYWGQGTLVTVSS
VL: DIQMTQSPSSLSASVGDRVTITCRASQDVSTAVAWYQQKPGKAPKLLIYSASFLYSGVPSRFSGSGSGTDFTLTISSLQPEDFATYYCQQSYTTPPTFGQGTKVEIKR
binds: all assays above
